Measurements reported in PMC5809731.
No constants are given. Whether binding was seen depends on the method and setting.

Protein sequences, listed by entry. Tags and fused reporters are not part of them. Lines headed by an entry give the natural chain unless they say otherwise; changes in a name come on top. Chains listed by the source or under a name are the forms on record and can include a tag or linker.
B30.2 domain of rhesus TRIM5α (Q0PF16, form named): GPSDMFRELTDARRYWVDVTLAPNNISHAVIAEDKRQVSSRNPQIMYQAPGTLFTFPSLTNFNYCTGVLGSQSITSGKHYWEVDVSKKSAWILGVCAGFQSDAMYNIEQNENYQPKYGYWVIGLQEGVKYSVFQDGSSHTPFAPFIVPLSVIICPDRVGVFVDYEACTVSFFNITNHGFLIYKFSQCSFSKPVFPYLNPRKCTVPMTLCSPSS

Molecular target: B30.2 domain of rhesus TRIM5α (rhesus macaque) (UniProt Q0PF16)
Experiment: dual-focus fluorescence correlation spectroscopy (2fFCS); both purified

Substance: Lysozyme (from UniProt P00698 19-147)
- binding: no binding
